Substitutions are numbered along the chain they refer to. Results are given in words; binding and its absence hold for the method and conditions named. Where a sequence is shown, tags or fusion partners need not be part of it. Blank lines part the entries; values can stand above or below the binder they belong to.
Tests used:
[1] = target: T1, human 6xHis-TEV-Twin-Strep-TTC5-K97A (human) (UniProt Q8N0Z6); assay: pull-down; 100 nM SCAPER-FLAG and 150 nM Strep-TTC5 in IP buffer (50 mM HEPES pH 7.4, 100 mM KAc, 5 mM MgAc2, 1 mM DTT, 0.01% digitonin), 4°C; Streptactin magnetic beads; Coomassie; both purified
T1 sequence: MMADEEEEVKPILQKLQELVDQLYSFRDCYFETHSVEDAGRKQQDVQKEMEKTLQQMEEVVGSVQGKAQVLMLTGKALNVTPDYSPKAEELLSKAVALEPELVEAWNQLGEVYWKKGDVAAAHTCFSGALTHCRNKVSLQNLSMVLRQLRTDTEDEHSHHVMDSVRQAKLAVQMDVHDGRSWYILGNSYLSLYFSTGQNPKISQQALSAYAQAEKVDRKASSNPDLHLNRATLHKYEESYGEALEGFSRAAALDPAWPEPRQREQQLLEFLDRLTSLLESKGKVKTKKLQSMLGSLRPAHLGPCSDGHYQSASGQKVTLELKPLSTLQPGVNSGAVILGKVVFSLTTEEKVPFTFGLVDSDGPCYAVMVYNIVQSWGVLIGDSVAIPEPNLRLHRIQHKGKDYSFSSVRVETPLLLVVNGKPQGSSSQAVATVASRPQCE

[2] = target: T2, human 6xHis-TEV-Twin-Strep-TTC5 (human) (UniProt Q8N0Z6); assay: pull-down; as a4, but reactions lacking β-tubulin RNCs; both purified
T2 sequence: T1 sequence with A97K

[3] = target: T2, human 6xHis-TEV-Twin-Strep-TTC5 (human); assay: condition: only RNCs with the MHQV mutant β-tubulin instead of wild-type β-tubulin; pull-down; as a4, but RNCs with the MHQV mutant β-tubulin; both purified
[4] = target: T1, human 6xHis-TEV-Twin-Strep-TTC5-K97A (human); assay: pull-down; recombinant FLAG-SCAPER and Strep-TTC5 (100-250 nM) present during translation of the 64-residue TUBB nascent chain in rabbit reticulocyte lysate; Streptactin Sepharose pull-down via TTC5, biotin elution; western blot; both purified

B1: human SCAPER-FLAG (recombinant, purified) (protein, UniProt Q9BY12 1-1400)
chain: MMASFQRSNSHDKVRRIVAEEGRTARNLIAWSVPLESKDDDGKPKCQTGGKSKRTIQGTHKTTKQSTAVDCKITSSTTGDKHFDKSPTKTRHPRKIDLRARYWAFLFDNLRRAVDEIYVTCESDQSVVECKEVLMMLDNYVRDFKALIDWIQLQEKLEKTDAQSRPTSLAWEVKKMSPGRHVIPSPSTDRINVTSNARRSLNFGGSTGTVPAPRLAPTGVSWADKVKAHHTGSTASSEITPAQSCPPMTVQKASRKNERKDAEGWETVQRGRPIRSRSTAVMPKVSLATEATRSKDDSDKENVCLLPDESIQKGQFVGDGTSNTIESHPKDSLHSCDHPLAEKTQFTVSTLDDVKNSGSIRDNYVRTSEISAVHIDTECVSVMLQAGTPPLQVNEEKFPAEKARIENEMDPSDISNSMAEVLAKKEELADRLEKANEEAIASAIAEEEQLTREIEAEENNDINIETDNDSDFSASMGSGSVSFCGMSMDWNDVLADYEARESWRQNTSWGDIVEEEPARPPGHGIHMHEKLSSPSRKRTIAESKKKHEEKQMKAQQLREKLREEKTLKLQKLLEREKDVRKWKEELLDQRRRMMEEKLLHAEFKREVQLQAIVKKAQEEEAKVNEIAFINTLEAQNKRHDVLSKLKEYEQRLNELQEERQRRQEEKQARDEAVQERKRALEAERQARVEELLMKRKEQEARIEQQRQEKEKAREDAARERARDREERLAALTAAQQEAMEELQKKIQLKHDESIRRHMEQIEQRKEKAAELSSGRHANTDYAPKLTPYERKKQCSLCNVLISSEVYLFSHVKGRKHQQAVRENTSIQGRELSDEEVEHLSLKKYIIDIVVESTAPAEALKDGEERQKNKKKAKKIKARMNFRAKEYESLMETKNSGSDSPYKAKLQRLAKDLLKQVQVQDSGSWANNKVSALDRTLGEITRILEKENVADQIAFQAAGGLTALEHILQAVVPATNVNTVLRIPPKSLCNAINVYNLTCNNCSENCSDVLFSNKITFLMDLLIHQLTVYVPDENNTILGRNTNKQVFEGLTTGLLKVSAVVLGCLIANRPDGNCQPATPKIPTQEMKNKPSQGDPFNNRVQDLISYVVNMGLIDKLCACFLSVQGPVDENPKMAIFLQHAAGLLHAMCTLCFAVTGRSYSIFDNNRQDPTGLTAALQATDLAGVLHMLYCVLFHGTILDPSTASPKENYTQNTIQVAIQSLRFFNSFAALHLPAFQSIVGAEGLSLAFRHMASSLLGHCSQVSCESLLHEVIVCVGYFTVNHPDNQVIVQSGRHPTVLQKLCQLPFQYFSDPRLIKVLFPSLIAACYNNHQNKIILEQEMSCVLLATFIQDLAQTPGQAENQPYQPKGKCLGSQDYLELANRFPQQAWEEARQFFLKKEKK
binding [1]: no binding (tested: 100 nM SCAPER, 150 nM TTC5)

binding [3]: no binding
binding [4]: no binding (tested: 100–250 nM)
B2: human FLAG-SCAPER (recombinant, purified) (protein, UniProt Q9BY12 1-1400)
chain: B1 chain
binding [2]: no binding (condition: reactions lacking β-tubulin RNCs)
